Results from the supplement of paper PMC3334620.
Whole data set: some 33,000 sequences, median “E-score (-0.5 to 0.5)” near -0.015, cut for the highest 2% near 0.3. Some of the results follow.

biological target: T1, Abf1 (UniProt P14164); assay: PBM E-score (8-mer binding enrichment) (E-score (-0.5 to 0.5)); higher = stronger / more preferred TF binding; details: protein concentration: 200 nM; construct: GST-full length
T1 sequence: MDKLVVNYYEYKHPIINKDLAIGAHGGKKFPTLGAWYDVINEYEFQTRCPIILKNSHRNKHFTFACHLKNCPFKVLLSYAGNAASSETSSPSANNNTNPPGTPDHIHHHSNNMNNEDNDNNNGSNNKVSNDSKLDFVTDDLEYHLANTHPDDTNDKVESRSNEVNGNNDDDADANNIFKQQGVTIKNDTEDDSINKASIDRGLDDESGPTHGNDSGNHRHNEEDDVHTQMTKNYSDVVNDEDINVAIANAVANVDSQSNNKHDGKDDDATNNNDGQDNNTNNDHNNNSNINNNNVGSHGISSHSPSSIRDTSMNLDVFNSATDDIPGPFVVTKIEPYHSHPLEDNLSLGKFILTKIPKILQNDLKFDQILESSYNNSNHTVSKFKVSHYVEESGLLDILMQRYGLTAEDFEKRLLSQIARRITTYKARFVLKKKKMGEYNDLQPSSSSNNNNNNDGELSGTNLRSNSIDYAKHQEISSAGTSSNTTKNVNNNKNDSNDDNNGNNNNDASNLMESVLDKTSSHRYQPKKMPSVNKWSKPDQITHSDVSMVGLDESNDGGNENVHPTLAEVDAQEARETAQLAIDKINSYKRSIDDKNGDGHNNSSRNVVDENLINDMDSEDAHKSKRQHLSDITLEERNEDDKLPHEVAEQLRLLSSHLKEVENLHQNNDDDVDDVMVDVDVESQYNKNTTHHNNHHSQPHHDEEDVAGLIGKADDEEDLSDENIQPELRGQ
Method in brief: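 Bound GST-tagged yeast transcription factors, applied at about 100-200 nM to double-stranded universal all-10-mer Agilent arrays, were detected with fluorescent anti-GST. Scans were normalised with masliner. A modified Wilcoxon-Mann-Whitney statistic, the E-score, was assigned to each ungapped eight-base word pooled with its reverse complement by the Universal PBM Analysis Suite.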

Row | Sequence | PBM E-score
1 | CTTTCCAA | 0.0814
2 | AAGCACAT | 0.0722
3 | GCAGACCC | -0.286
4 | CGTATTCC | 0.189
5 | CATGGTGG | -0.174
6 | GATCCGAC | 0.0109
7 | ACTCGGCT | -0.088
8 | CGGCAGCC | -0.0383
9 | AGTCCATA | 0.0757
10 | AATCTTAC | 0.13
11 | AGAGATTA | 0.0822
12 | ACTAACCA | 0.0119
13 | GCGCCTAA | 0.247
14 | CATAGGAG | -0.135
15 | ACCCGACG | 0.00691
16 | AGAACCGG | -0.244
17 | ACGCCTCC | -0.2
18 | ATCCCCAG | -0.034
19 | AAATCCTA | -0.00873
20 | CACCGAAA | 0.058
21 | CTCACAGC | -0.0854
22 | ATCTGCGG | -0.0296
23 | ACCAATTG | -0.00572
24 | CCGTTGCC | -0.201
25 | CCCGGCGC | -0.147

Row | Sequence | PBM E-score
26 | ATCTGAAT | 0.0175
27 | ACTGAAGA | -0.00996
28 | AGGGGGAG | -0.427
29 | AGCCGTTG | 0.153
30 | CCGAACTC | -0.141
31 | AGTGCAGG | -0.201
32 | ACAGGGAG | -0.0871
33 | GGCTGTCA | 0.0901
34 | CCATGTAA | -0.0371
35 | ACTCTCAT | 0.116
36 | AGCGGAAA | -0.0245
37 | AGATACCA | 0.045
38 | ATACCTTA | 0.228
39 | TAAGGCAA | -0.17
40 | CCACGGCA | 0.198
41 | AGTCATTG | 0.00581
42 | AGTGTTAG | -0.132
43 | TCAGGCCA | -0.216
44 | ATCCTCAT | 0.0287
45 | GGTCCGCA | -0.0891
46 | AGGCAGTC | -0.0418
47 | CTAATAAG | -0.0784
48 | ACCTGCAT | 0.013
49 | CGACACGA | 0.298
50 | AACGAAGC | -0.0275

Row | Sequence | PBM E-score
51 | CTCAATTA | 0.123
52 | CCTTCTCC | -0.217
53 | CCAACGTC | 0.158
54 | AAGGCATG | -0.0413
55 | AGGCGTAA | -0.0163
56 | CGCATACC | -0.0212
57 | ACTAGCAT | -0.0996
58 | CAGACGGA | 0.206
59 | ACATATTC | 0.112
60 | AAACCTGT | 0.00044
61 | GGCCCCAC | -0.135
62 | CTGACTTC | -0.175
63 | CACGCTGG | 0.0781
64 | CAAGTACA | -0.194
65 | AAAGTTTC | 0.0305
66 | GAGTCGCA | -0.284
67 | GGCAATGA | 0.146
68 | CAGGTGAG | -0.0565
69 | AATCGGCC | -0.286
70 | CCGATCCA | -0.168
71 | AACGGGCT | -0.0799
72 | GGTGATTA | 0.242
73 | ACCCTCCA | -0.232
74 | CATCAGGG | -0.0979
75 | AGCAACCG | 0.0929

Row | Sequence | PBM E-score
76 | CTAGTTAC | 0.0384
77 | AACTTGCG | 0.0405
78 | ATCAGACA | -0.0632
79 | AGGTTGAC | -0.0821
80 | GTACATTA | 0.192
81 | AAGGATTA | -0.138
82 | CAGGGGCA | -0.0965
83 | CTCCTTCA | -0.253
84 | AGGGATAT | 0.037
85 | ATAAACAA | 0.185
86 | CTCATGAA | 0.0449
87 | AGTTTGTG | 0.0523
88 | GCGTAACA | -0.00058
89 | AATTTGCA | -0.0199
90 | GTCAAACA | -0.0854
91 | CCCATGGC | -0.259
92 | GTCCCGTA | 0.0936
93 | ATCCACGG | 0.316
94 | CCGTATCC | 0.11
95 | CATGTGCC | 0.0113
96 | AATTTAAC | 0.158
97 | CACACTAC | -0.0406
98 | TTAAAAAA | 0.166
99 | GTAGCATA | 0.0973
100 | CGAGCGAG | 0.21

Row | Sequence | PBM E-score
101 | GTAAGGAA | -0.0598
102 | ATTATTCG | 0.278
103 | CGTAATAC | 0.303
104 | CCGCTGGA | -0.222
105 | ACCCCGTG | 0.0514
106 | AACCAATG | 0.00464
107 | GCGTATGA | 0.0421
108 | AATTATAG | 0.101
109 | AAGCCAAC | -0.0296
110 | CAGCGTGC | -0.0572
111 | TGCCTCCA | -0.102
112 | ATTTTCAC | 0.118
113 | CCAGTCCC | -0.112
114 | ATCAACAT | 0.0539
115 | AGGTAAGA | 0.149
116 | CTAGCGAG | -0.0638
117 | CCCCATGC | -0.183
118 | AAGAACGT | 0.136
119 | TTCGTCAA | 0.151
120 | CAATTCAG | 0.0364
121 | GTCTAAAC | 0.00585
122 | CTACTATC | 0.231
123 | ATCAGTAC | 0.0944
124 | CAGACCCG | -0.251
125 | ACGGGCAA | 0.0689

Row | Sequence | PBM E-score
126 | ATTCAATA | 0.133
127 | CGATCGAC | -0.0447
128 | TAGCATGA | 0.0481
129 | TTCATCAA | 0.041
130 | TATTCTAA | 0.0663
131 | AGGATAAG | -0.149
132 | CGAATATC | 0.174
133 | CACCTGAG | -0.172
134 | GCGGCTAA | -0.147
135 | TGGGTGAA | 0.144
136 | GACCAGGA | -0.0435
137 | ACAGGAAT | -0.121
138 | AGCACTTC | 0.0874
139 | GAGCAATA | -0.0765
140 | AAGTGGGG | -0.192
141 | CATTAGTA | 0.0577
142 | ACCCATCC | -0.236
143 | TCATCAAA | 0.063
144 | CACATCTC | -0.117
145 | TCGTTAAA | 0.27
146 | TCGATAGA | 0.118
147 | GAACACCA | -0.192
148 | ATTAACAA | 0.132
149 | AGAGCCCG | -0.0823
150 | ACTCATCA | 0.131

Retrieved one by one from the list above:
Row | Sequence | PBM E-score
146 | TCGATAGA | 0.118
138 | AGCACTTC | 0.0874
130 | TATTCTAA | 0.0663
131 | AGGATAAG | -0.149
142 | ACCCATCC | -0.236
145 | TCGTTAAA | 0.27

Continuation.

Row | Sequence | PBM E-score
151 | ACCGTTAT | 0.069
152 | AATCGATA | 0.143
153 | AGGCACCA | -0.153
154 | CCTCCAAG | -0.149
155 | CCTTCCGC | -0.305
156 | ACGCCTAC | -0.0105
157 | AATAGTTA | -0.0177
158 | GAATGACC | 0.0136
159 | ACACATGC | -0.114
160 | GTCTCGTA | 0.155
161 | GAGGATCC | -0.0179
162 | CATTCTGC | -0.00871
163 | CTCAAGCA | 0.0587
164 | AATCATGC | 0.0496
165 | TAAACAGA | -0.0362
166 | ATCACCTA | 0.245
167 | AAGTGGAG | -0.00206
168 | ATGAGATC | 0.183
169 | CAAATTAA | -0.147
170 | CAAAACGA | 0.297
171 | ATCCGTTC | 0.0456
172 | AACGGTGA | 0.135
173 | AATACAAT | 0.094
174 | CACGACGA | 0.263
175 | CGCGGCTA | -0.149

Row | Sequence | PBM E-score
176 | CGGAGTCC | -0.156
177 | GCATTGCA | 0.0293
178 | AAGGGCAC | -0.0702
179 | ACGCAACC | -0.00069
180 | ACTCATAA | 0.127
181 | CTCTAAAG | -0.0484
182 | AGCTCATG | 0.0262
183 | CTGCCCCC | -0.392
184 | AAAGGTAG | 0.0516
185 | CTGACGCC | -0.261
186 | ATCCCTAG | 0.146
187 | CACTGAAC | -0.0659
188 | ACGCGGTC | -0.0102
189 | ACCACCTA | -0.168
190 | CCACTAGA | -0.27
191 | CGCCCCAC | -0.141
192 | AGCTTGCC | -0.0551
193 | AGGACTCC | -0.394
194 | AACGAGCC | 0.0338
195 | GCGATGGA | 0.17
196 | AGTATATA | 0.31
197 | CTTGCCTC | -0.185
198 | ATGCCCTA | -0.195
199 | CCTCTTCG | -0.0259
200 | ACGTGGAG | -0.0904

Row | Sequence | PBM E-score
201 | AGACTGTC | -0.218
202 | CCGGCTAC | -0.245
203 | CCCACGAG | 0.0399
204 | CCAAATAG | -0.0458
205 | GAGGTATC | 0.047
206 | ATACTGAC | -0.0663
207 | TCGAACGA | 0.236
208 | CTGAAAAC | 0.0998
209 | CATAAATA | 0.0772
210 | CGGTGTAC | -0.0935
211 | ACCCCTCT | -0.259
212 | CGGCTTTC | -0.112
213 | AGCTAGAG | -0.0248
214 | ACTCCTTC | -0.222
215 | GAGGTCTA | -0.119
216 | ACCGTGTG | 0.0746
217 | ACTGTCAG | 0.132
218 | CGCAATCC | 0.0307
219 | AATTACTC | 0.092

Some values from the entries so far:
Under PBM E-score, ACCACCTA is entered as -0.168
Under PBM E-score, AAATCCTA is entered as -0.00873
Under PBM E-score, AGGTAAGA is entered as 0.149
Under PBM E-score, AGGCACCA is entered as -0.153
Under PBM E-score, GTCTCGTA is entered as 0.155
Under PBM E-score, AGGGGGAG is entered as -0.427
Under PBM E-score, TCGAACGA is entered as 0.236
